Assay results reported in paper PMC12608094, “STN1 Shields CTC1 From TRIM32‐Mediated Ubiquitination to Prevent Cellular Aging” (Aging Cell, 2025).
These are yes or no findings as the source states them, for the method shown. In cells and extracts the contact can be indirect. These calls come from enrichment with a bait or labelling near it, and not all partners need be listed. Sequences can lack the tags named with a protein.

By UniProt entry, the sequences of proteins in these tests, tags left out.
UniProt Q13049: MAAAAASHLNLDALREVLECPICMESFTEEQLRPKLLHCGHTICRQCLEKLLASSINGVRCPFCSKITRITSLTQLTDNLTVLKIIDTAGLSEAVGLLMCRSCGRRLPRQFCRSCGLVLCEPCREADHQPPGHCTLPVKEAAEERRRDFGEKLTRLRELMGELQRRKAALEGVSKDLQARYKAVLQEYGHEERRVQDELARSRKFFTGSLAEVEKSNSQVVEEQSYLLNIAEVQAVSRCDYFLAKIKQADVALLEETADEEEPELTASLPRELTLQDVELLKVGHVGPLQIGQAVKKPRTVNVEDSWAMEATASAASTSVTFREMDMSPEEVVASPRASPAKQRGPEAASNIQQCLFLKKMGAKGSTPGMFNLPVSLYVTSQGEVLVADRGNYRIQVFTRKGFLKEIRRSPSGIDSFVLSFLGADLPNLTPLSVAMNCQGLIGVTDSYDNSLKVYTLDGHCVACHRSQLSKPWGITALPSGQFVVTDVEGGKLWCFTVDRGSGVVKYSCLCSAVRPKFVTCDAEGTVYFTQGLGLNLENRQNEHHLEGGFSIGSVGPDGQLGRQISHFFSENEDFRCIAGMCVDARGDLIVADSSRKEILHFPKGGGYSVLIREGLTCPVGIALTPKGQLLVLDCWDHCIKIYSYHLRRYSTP

T1: Flag-tagged CTC1 (wild type) (human, UniProt Q2NKJ3 1-1217)
T1 sequence (looked up): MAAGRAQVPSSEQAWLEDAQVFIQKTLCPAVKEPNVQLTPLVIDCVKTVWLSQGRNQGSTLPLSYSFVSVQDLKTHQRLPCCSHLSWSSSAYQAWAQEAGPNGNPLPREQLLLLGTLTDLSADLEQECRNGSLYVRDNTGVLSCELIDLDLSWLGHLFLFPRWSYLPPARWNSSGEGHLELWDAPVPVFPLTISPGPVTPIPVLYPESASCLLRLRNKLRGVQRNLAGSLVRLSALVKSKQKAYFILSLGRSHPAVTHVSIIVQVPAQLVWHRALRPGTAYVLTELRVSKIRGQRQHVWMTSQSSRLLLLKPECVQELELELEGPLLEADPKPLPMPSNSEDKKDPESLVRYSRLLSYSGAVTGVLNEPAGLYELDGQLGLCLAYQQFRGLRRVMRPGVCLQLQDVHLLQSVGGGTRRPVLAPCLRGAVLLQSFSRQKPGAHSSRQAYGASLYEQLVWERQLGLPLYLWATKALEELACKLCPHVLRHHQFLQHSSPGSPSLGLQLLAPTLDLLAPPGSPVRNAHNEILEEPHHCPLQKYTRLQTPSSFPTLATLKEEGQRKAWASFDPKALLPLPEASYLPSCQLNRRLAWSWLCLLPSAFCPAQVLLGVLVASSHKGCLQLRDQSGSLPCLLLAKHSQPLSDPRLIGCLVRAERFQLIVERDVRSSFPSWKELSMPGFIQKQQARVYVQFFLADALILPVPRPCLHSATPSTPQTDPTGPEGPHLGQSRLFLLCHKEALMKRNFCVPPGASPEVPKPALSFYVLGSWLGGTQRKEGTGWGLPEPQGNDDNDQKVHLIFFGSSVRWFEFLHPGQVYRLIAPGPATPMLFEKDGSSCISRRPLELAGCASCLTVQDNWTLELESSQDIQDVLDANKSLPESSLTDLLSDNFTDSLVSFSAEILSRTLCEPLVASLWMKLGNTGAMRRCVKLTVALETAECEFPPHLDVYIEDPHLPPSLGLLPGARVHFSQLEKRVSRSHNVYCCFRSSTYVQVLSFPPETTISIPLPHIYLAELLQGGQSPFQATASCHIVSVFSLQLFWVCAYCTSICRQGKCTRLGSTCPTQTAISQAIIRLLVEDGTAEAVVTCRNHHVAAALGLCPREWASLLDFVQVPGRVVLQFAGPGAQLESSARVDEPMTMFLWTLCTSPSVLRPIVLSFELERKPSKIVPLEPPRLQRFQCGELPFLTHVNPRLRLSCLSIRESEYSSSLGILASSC


Molecular target: T1, Flag-tagged CTC1 (wild type)
Assay: affinity purification with mass spectrometry; Flag-IP products from cells expressing Flag-CTC1 (HEK293T by the methods, HCT116 by the legend of Figure 3a), LC-MS/MS

Molecule | binding
TRIM32 (endogenous, found with Flag-CTC1) (from UniProt Q13049 1-653) (enzyme) | binds
HA-tagged STN1 (wild type) (natural protein, human, UniProt Q9H668 1-368, looked up) MQPGSSRCEEETPSLLWGLDPVFLAFAKLYIRDILDMKESRQVPGVFLYNGHPIKQVDVLGTVIGVRERDAFYSYGVDDSTGVINCICWKKLNTESVSAAPSAARELSLTSQLKKLQETIEQKTKIEIGDTIRVRGSIRTYREEREIHATTYYKVDDPVWNIQIARMLELPTIYRKVYDQPFHSSALEKEEALSNPGALDLPSLTSLLSEKAKEFLMENRVQSFYQQELEMVESLLSLANQPVIHSASSDQVNFKKDTTSKAIHSIFKNAIQLLQEKGLVFQKDDGFDNLYYVTREDKDLHRKIHRIIQQDCQKPNHMEKGCHFLHILACARLSIRPGLSEAVLQQVLELLEDQSDIVSTMEHYYTAF | binds
TEN1 (endogenous, found with Flag-CTC1) (protein, UniProt Q86WV5 1-123) MMLPKPGTYYLPWEVSAGQVPDGSTLRTFGRLCLYDMIQSRVTLMAQHGSDQHQVLVCTKLVEPFHAQVGSLYIVLGELQHQQDRGSVVKARVLTCVEGMNLPLLEQAIREQRLYKQERGGSQ | binds
